Measured values as given in the supplement of paper PMC10849652.
Some of the results follow.

By UniProt entry, the sequences of proteins in these tests, tags left out. Where a name states a change or a piece, a line headed by the entry shows the natural chain unless it says otherwise.
UniProt Q9NVX2: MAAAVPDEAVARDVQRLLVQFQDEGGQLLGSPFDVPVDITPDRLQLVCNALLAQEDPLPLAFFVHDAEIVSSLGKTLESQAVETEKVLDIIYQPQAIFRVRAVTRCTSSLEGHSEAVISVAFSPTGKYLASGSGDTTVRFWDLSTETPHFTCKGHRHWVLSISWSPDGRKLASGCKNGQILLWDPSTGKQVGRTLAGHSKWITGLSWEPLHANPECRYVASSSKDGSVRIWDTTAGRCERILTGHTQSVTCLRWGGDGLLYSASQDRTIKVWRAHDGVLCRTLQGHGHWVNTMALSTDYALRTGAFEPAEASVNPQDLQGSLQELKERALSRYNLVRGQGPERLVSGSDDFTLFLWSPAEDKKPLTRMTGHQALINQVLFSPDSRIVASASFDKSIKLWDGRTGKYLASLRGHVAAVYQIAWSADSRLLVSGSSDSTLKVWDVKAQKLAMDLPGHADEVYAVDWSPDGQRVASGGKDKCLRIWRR
UniProt Q9NXR1: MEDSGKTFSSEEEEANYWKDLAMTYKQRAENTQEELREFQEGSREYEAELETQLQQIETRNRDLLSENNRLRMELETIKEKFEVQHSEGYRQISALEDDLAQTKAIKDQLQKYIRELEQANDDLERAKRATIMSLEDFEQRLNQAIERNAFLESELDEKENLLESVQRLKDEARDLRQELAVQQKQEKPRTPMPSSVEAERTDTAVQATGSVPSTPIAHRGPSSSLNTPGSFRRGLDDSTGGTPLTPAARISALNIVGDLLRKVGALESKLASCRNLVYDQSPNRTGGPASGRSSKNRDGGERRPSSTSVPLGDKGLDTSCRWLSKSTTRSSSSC
UniProt O95182, whole entry, looked up: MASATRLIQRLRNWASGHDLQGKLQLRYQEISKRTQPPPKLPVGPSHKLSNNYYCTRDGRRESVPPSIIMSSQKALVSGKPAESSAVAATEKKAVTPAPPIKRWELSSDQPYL
UniProt O75380, whole entry, looked up: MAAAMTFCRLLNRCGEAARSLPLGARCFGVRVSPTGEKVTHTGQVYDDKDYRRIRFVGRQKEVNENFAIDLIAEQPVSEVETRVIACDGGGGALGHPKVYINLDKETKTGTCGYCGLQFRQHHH
UniProt O43674, whole entry, looked up: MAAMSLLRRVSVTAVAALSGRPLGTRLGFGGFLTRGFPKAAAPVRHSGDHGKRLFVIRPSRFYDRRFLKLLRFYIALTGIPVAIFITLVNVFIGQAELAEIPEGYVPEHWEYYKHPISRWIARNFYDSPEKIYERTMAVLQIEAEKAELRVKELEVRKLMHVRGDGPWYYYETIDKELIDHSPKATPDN
UniProt P51956: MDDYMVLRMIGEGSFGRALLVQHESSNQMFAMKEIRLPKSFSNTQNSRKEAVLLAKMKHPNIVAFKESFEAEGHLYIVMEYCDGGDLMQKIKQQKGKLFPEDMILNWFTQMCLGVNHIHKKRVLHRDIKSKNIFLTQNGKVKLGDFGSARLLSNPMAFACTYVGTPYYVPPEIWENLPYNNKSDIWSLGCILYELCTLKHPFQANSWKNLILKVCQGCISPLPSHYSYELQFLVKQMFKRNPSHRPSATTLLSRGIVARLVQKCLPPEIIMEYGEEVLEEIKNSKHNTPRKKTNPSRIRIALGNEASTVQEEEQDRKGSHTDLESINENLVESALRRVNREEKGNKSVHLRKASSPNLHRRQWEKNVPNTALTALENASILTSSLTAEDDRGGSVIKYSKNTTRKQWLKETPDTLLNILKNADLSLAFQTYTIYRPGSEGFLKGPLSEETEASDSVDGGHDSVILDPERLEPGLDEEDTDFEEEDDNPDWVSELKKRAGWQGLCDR
UniProt P30414: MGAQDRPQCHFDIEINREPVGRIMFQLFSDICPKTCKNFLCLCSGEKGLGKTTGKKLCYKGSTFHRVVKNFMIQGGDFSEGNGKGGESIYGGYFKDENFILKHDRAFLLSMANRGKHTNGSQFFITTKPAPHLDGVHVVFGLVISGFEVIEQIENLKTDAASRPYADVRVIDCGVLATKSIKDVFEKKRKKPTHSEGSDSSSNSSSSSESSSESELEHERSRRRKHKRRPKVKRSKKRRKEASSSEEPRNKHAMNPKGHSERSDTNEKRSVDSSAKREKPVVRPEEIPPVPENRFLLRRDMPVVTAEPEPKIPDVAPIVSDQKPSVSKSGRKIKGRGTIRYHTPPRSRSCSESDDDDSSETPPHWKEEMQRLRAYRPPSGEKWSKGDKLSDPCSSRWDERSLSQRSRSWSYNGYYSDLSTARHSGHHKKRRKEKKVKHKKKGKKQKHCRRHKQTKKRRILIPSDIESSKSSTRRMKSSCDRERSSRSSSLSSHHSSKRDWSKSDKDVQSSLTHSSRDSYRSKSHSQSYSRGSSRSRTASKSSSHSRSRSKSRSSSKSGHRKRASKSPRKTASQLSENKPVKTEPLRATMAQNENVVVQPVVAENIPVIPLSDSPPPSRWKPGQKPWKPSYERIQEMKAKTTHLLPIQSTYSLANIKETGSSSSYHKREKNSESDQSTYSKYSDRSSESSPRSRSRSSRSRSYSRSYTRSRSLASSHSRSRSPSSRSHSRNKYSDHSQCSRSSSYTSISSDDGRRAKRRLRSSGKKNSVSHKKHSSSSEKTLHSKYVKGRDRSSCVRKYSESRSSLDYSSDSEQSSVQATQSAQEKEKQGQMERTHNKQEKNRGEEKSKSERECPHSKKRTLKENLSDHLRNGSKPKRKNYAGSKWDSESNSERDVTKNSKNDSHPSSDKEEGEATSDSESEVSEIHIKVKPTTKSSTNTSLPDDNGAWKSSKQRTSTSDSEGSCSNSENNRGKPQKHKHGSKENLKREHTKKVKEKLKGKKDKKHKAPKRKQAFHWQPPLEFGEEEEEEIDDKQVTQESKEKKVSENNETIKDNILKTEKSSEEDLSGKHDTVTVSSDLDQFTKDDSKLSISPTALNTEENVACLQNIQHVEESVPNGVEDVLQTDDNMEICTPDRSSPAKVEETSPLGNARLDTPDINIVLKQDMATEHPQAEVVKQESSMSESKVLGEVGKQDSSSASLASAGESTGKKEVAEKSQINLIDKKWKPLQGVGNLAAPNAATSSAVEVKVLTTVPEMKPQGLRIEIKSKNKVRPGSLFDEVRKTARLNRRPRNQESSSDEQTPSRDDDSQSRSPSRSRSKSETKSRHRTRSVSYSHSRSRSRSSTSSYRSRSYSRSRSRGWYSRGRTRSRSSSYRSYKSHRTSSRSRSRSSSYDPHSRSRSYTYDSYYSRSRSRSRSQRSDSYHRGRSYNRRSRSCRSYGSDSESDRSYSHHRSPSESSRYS
UniProt O95299, whole entry, looked up: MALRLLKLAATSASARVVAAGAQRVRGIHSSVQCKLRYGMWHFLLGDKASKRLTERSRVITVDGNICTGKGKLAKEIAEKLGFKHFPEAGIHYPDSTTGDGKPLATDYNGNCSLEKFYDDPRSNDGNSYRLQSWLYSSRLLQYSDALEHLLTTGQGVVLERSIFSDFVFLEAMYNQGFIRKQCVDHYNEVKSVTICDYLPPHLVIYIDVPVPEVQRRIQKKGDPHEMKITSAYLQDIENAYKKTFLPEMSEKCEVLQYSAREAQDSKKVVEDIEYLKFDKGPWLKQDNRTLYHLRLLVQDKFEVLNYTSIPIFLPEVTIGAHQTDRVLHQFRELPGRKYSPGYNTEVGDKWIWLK
UniProt P51957: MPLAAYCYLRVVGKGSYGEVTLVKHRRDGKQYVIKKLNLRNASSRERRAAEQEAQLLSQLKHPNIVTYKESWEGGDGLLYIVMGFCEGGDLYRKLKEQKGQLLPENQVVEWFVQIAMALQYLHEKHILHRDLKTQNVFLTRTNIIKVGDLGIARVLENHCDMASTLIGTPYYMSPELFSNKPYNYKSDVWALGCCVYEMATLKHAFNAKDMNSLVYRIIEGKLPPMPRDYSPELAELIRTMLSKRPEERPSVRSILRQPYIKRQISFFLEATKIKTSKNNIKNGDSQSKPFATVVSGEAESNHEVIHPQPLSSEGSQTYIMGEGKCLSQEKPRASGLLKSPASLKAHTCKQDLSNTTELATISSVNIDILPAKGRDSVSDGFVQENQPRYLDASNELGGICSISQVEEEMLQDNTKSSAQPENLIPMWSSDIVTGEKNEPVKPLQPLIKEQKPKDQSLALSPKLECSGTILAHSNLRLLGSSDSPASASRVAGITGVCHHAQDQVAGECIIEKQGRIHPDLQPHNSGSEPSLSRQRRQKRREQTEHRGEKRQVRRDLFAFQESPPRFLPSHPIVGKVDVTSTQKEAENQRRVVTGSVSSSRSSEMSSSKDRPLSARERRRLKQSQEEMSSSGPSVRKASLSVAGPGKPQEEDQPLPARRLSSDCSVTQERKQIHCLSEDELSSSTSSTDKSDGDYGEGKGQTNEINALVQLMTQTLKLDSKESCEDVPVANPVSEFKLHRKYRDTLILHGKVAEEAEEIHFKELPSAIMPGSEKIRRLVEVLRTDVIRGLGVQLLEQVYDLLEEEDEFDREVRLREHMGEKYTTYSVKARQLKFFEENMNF
UniProt Q7L592: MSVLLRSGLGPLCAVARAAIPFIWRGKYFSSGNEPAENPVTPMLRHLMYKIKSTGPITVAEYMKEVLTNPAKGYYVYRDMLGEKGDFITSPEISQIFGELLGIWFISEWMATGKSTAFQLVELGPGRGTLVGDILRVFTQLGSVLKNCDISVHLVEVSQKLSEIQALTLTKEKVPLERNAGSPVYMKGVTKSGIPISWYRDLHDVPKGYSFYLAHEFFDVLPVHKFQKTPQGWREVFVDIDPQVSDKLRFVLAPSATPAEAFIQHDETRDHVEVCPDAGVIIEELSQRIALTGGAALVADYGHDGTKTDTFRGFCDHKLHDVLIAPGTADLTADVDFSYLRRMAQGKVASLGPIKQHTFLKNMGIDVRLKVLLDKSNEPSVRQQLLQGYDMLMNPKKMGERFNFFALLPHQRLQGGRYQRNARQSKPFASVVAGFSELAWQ
UniProt Q9BPW8: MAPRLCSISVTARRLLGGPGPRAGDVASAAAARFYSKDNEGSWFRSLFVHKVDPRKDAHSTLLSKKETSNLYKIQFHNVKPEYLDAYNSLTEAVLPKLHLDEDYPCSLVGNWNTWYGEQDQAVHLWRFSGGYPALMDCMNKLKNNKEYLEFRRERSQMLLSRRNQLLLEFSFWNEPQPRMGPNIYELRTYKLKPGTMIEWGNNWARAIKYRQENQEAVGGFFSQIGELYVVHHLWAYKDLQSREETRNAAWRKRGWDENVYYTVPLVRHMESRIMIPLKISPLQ
UniProt Q9UI09, whole entry, looked up: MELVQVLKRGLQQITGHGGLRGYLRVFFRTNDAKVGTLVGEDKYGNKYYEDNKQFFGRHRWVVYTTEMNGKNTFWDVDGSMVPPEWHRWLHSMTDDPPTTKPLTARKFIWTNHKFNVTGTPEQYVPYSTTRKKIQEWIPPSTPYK
UniProt P25208: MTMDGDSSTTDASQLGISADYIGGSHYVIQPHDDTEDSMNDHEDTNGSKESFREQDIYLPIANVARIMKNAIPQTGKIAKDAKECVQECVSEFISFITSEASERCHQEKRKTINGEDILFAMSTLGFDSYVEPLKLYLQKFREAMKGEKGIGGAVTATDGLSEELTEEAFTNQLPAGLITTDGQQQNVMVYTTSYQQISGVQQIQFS
UniProt Q0ZGT2: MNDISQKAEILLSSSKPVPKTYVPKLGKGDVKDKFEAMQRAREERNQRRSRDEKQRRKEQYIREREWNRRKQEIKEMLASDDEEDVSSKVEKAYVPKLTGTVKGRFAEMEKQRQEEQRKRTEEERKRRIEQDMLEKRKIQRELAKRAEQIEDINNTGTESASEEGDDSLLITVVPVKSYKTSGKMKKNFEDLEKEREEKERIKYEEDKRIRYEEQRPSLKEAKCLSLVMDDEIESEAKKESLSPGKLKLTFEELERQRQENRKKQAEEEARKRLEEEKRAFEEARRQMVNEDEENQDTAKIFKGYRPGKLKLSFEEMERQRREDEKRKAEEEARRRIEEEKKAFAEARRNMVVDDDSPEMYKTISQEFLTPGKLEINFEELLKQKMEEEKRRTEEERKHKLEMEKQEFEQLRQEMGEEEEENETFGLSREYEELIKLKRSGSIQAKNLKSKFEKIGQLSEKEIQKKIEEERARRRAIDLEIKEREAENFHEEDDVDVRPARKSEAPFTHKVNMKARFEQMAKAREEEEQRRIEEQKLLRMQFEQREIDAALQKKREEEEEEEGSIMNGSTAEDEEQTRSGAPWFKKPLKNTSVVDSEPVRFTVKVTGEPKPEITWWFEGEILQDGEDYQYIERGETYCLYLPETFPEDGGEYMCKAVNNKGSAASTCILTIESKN

Tests used:
Assay in all cases: log2 fold change, soluble protein after heating vs DMSO (PISA); higher = thermal stabilisation; K562 lysate, 10 uM; active = over 0.2 and 3.5 SD of the protein, either way, in both replicates (recomputed)
[1] = compound: CCCS(=O)(=O)Nc1ccc(F)c(C(=O)c2c[nH]c3ncc(-c4ccc(Cl)cc4)cc23)c1F [vemurafenib]
Method in brief: (§1)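 To prepare the extract, K562 pellets were dounce-homogenised in PBS pH 7.4 with 1 mM MgCl2, giving crude material at 1 mg/mL protein. This was treated with 10 μM compound for 30 min, then heated in aliquots for 3 min over 48°C-58°C before pooling and addition of NP-40 to 0.5% at 4°C. Centrifugation at 21,000xg for 90 min left soluble protein in the supernatant, which TMTpro 16plex LC-MS/MS quantified with equalised channel sums. Results are log-two fold changes in thermal stability compared with solvent controls, from duplicates.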

[2] = compound: CCCS(=O)(=O)Nc1ccc(F)c(C(=O)c2c[nH]c3ncc(Cl)cc23)c1F
Method in brief: as §1

[3] = compound: CCN(CCCOc1ccc2c(Nc3cc(CC(=O)Nc4cccc(F)c4)[nH]n3)ncnc2c1)CCOP(=O)(O)O [barasertib]
Method in brief: as §1

[4] = compound: CC[C@@H]1C(=O)N(C)c2cnc(Nc3ccc(C(=O)NC4CCN(C)CC4)cc3OC)nc2N1C1CCCC1
Method in brief: as §1

[5] = compound: CC[C@@H]1C(=O)N(C)c2cnc(Nc3ccc(C(=O)N[C@H]4CC[C@H](N5CCN(CC6CC6)CC5)CC4)cc3OC)nc2N1C(C)C [volasertib]
Method in brief: as §1

[6] = compound: CCn1c(C(=O)N(C2CC2)C2CC2)cc2c3c(ncn3C)c(Nc3cc(C)n(C)n3)nc21
Method in brief: as §1

[7] = compound: CCn1cc(-c2ccnc3[nH]c(-c4cccc(CN(C)C)c4)cc23)c(-c2ccc(NC(=O)N(C)C)cc2)n1
Method in brief: as §1

[8] = compound: CN1CCC(CNc2ccc3ncc(-c4cccc(OC(F)(F)F)c4)n3n2)CC1
Method in brief: as §1

[9] = compound: CN1CCN(CCOc2cc(OC3CCOCC3)c3c(Nc4c(Cl)ccc5c4OCO5)ncnc3c2)CC1 [saracatinib]
Method in brief: as §1

[10] = compound: CN1CCN(c2nc(C3=C(c4c[nH]c5ccccc45)C(=O)NC3=O)c3ccccc3n2)CC1 [sotrastaurin]
Method in brief: as §1

Measured: log2 fold change

NLE1 (UniProt Q9NVX2)
inactive: [1] 0 | [2] 0.002 | [3] -0.027 | [4] -0.035 | [5] 0.023 | [6] 0 | [7] -0.026 | [8] 0.023 | [9] -0.017 | [10] 0.011

NDE1 isoform 1 (UniProt Q9NXR1)
inactive: [1] 0.054 | [2] 0.015 | [3] 0.001 | [4] -0.007 | [5] 0.035 | [6] 0.067 | [7] -0.085 | [8] 0.071 | [9] 0.059 | [10] 0.057

NDUFA7 (UniProt O95182)
inactive: [1] -0.015 | [2] 0.033 | [3] -0.047 | [4] 0.065 | [5] 0.011 | [6] -0.019 | [7] -0.001 | [8] -0.082 | [9] -0.02 | [10] 0.028

NDUFS6 (UniProt O75380)
inactive: [1] -0.035 | [2] 0.006 | [3] 0.043 | [4] -0.037 | [5] 0.014 | [6] 0.02 | [7] 0.008 | [8] 0.002 | [9] 0.003 | [10] -0.007

NDUFB5 (UniProt O43674)
inactive: [1] 0.048 | [2] -0.02 | [3] -0.021 | [4] -0.028 | [5] 0.018 | [6] 0.075 | [7] 0.137 | [8] -0.053 | [9] -0.012 | [10] -0.003

NEK3 (UniProt P51956)
inactive: [1] -0.126 | [2] 0.046 | [3] 0.378 | [4] 0.098 | [5] 0.039 | [6] 0.005 | [7] 0.009 | [8] -0.018 | [9] -0.058 | [10] 0.021

NKTR (UniProt P30414)
inactive: [1] 0.033 | [2] -0.064 | [3] 0.099 | [4] 0.18 | [5] 0.029 | [6] -0.05 | [7] -0.346 | [8] 0.476 | [9] 0.056

NDUFA10 (UniProt O95299)
inactive: [1] -0.012 | [2] 0.008 | [3] 0.309 | [4] -0.07 | [5] -0.093 | [6] 0.021 | [7] -0.061 | [8] -0.138 | [9] 0.032 | [10] 0.16

NEK4 (UniProt P51957)
inactive: [1] 0.093

NDUFAF7 (UniProt Q7L592)
inactive: [1] 0.041 | [2] -0.01 | [3] -0.038 | [4] 0.023 | [5] -0.013 | [6] 0.019 | [7] 0.025 | [8] -0.048 | [9] 0.015 | [10] 0.031

NIPSNAP1 (UniProt Q9BPW8)
inactive: [1] -0.056 | [2] 0.07 | [3] 0.038 | [4] -0.067 | [5] -0.053 | [6] -0.056 | [7] -0.036 | [8] -0.154 | [9] 0.011 | [10] -0.043

NDUFA12 (UniProt Q9UI09)
inactive: [1] 0.049 | [2] 0.008 | [3] 0.046 | [4] 0.02 | [5] 0.051 | [6] 0.026 | [7] 0.063 | [8] -0.129 | [9] -0.017 | [10] 0.088

NEMF (UniProt O60524)
inactive: [1] -0.03 | [2] 0.019 | [3] -0.008 | [4] -0.012 | [5] -0.008 | [6] 0.017 | [7] 0.059 | [8] -0.036 | [9] 0.017 | [10] 0.002

NFKB1 isoform 2 (UniProt P19838)
inactive: [1] -0.019 | [2] 0 | [3] -0.001 | [4] -0.017 | [5] -0.021 | [6] -0.013 | [7] -0.046 | [8] -0.003 | [9] 0.017 | [10] 0.009

NFYB (UniProt P25208)
inactive: [1] 0.219 | [2] 0.013 | [3] 0.048 | [4] 0.09 | [5] -0.031 | [6] -0.038 | [7] -0.085 | [8] -0.02 | [9] -0.012 | [10] 0.01

NEXN (UniProt Q0ZGT2)
inactive: [1] 0.073 | [2] 0.218 | [3] 0.101 | [4] -0.132 | [5] 0.051 | [6] 0.075 | [7] -0.231 | [8] 0.209 | [9] 0.026

Two consecutive entries out of the list so far, quoted:
NDUFA12 (UniProt Q9UI09)
inactive: [1] 0.049 | [2] 0.008 | [3] 0.046 | [4] 0.02 | [5] 0.051 | [6] 0.026 | [7] 0.063 | [8] -0.129 | [9] -0.017 | [10] 0.088

NEMF (UniProt O60524)
inactive: [1] -0.03 | [2] 0.019 | [3] -0.008 | [4] -0.012 | [5] -0.008 | [6] 0.017 | [7] 0.059 | [8] -0.036 | [9] 0.017 | [10] 0.002
